{"source": "paper PMC3656112", "binders": {"B1": {"name": "Vap27-1-His (protein, UniProt Q8VZ95 1-256)", "chain": "MSNIDLIGMSNRDLIGMSNSELLTVEPLDLQFPFELKKQISCSLYLTNKTDNNVAFKVKTTNPKKYCVRPNTGVVLPRSTCEVLVTMQAQKEAPSDMQCKDKFLLQGVIASPGVTAKEVTPEMFSKEAGHRVEETKLRVTYVAPPRPPSPVHEGSEEGSSPRASVSDNGHGSEFSFERFIVDNKAGHQENTSEARALITKLTEEKQSAIQLNNRLQRELDQLRRESKKSQSGGIPFMYVLLVGLIGLILGYIMKRT"}, "B2": {"name": "untagged Vap27-1 (protein, UniProt Q8VZ95 1-256)", "chain": "B1 chain"}, "B3": {"name": "Syp71, prey fusion from pPR3-N-Syp71 (protein, UniProt Q9SF29 1-266)", "chain": "MTVIDILTRVDSICKKYDKYDVDKQREANISGDDAFARLYGAFETQIETALEKAELVTKEKNRAAAVAMNAEIRRTKARLSEEVPKLQRLAVKRVKGLTTEELAARNDLVLALPARIEAIPDGTAGGPKSTSAWTPSSTTSRPDIKFDSDGRFDDDYFQESNESSQFRQEYEMRKIKQEQGLDMISEGLDALKNMASDMNEELDRQVPLMDEIDTKVDRATSDLKNTNVRLKDTVNQLRSSRNFCIDIVLLCIVLGIAAYLYNVLK"}}, "key": {"[1]": {"molecular_target": "6K2-HA (Turnip mosaic virus)", "assay": "co-IP; two tagged proteins transiently coexpressed in N. benthamiana leaves for 48 h; cleared lysate in 50 mM Tris pH 7.5, 150 mM NaCl, 10% glycerol, 0.1% Nonidet P-40, 5 mM DTT; immunoprecipitated with HA antibodies and protein G Sepharose at 4°C; detected by His antibodies"}, "[2]": {"molecular_target": "6K2-HA (Turnip mosaic virus)", "assay": "co-IP; Syp71-His, 6K2-HA and untagged Vap27-1 transiently coexpressed together in N. benthamiana leaves; cleared lysate immunoprecipitated with HA antibodies; detected by His antibodies"}, "[3]": {"molecular_target": "TuMV 6K2 protein, bait fusion from pBT3-STE-6K2 (Turnip mosaic virus)", "assay": "two-hybrid; DUAL membrane system (a variant of the yeast two-hybrid assay for membrane proteins); bait in pBT3-STE, prey in pPR3-N; yeast NMY51; growth on SD/-Leu/-Trp/-His/-Ade at 30°C for 2 days"}}, "note": "Results are given in words; binding and its absence hold for the method and conditions named. For part of these data: In cells and extracts the contact can be indirect. For part of these data: Binding can be weak; no strength is given. Sequences can lack the tags named with a protein."}
{"binder": "B1", "values": [{"measurement": "binding", "setting": "[1]", "value": "binds"}]}
{"binder": "B2", "values": [{"measurement": "binding", "setting": "[2]", "value": "binds"}]}
{"binder": "B3", "values": [{"measurement": "binding", "setting": "[3]", "value": "no binding"}]}
